Laboratory results: PubChem BioAssay AID602196 (INSERM, 2012)
The deposit covers about 23,000 reagents; this is an unselected part. Of all reagents, 455 (2%) got an active call. 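Active includes both protection and sensitisation; some change values fall well beyond the stated -50 to +50 range.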 Not all columns of the deposit are shown. The record does not give: the amount of reagent.

Purpose: 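Knock-downs that protect lung cancer cells from cisplatin or sensitise them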
Cells: human A549 lung cancer cells
Reagent: siRNA pair against human genes
Duration: 48 h transfection before cisplatin; time from cisplatin to read-out not stated
Challenge: cisplatin at a dose killing half of control-siRNA cells; exact dose and duration not given
Detection: 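Cisplatin cell death as a shift from the 50% death seen with control siRNA; siRNAs toxic or growth-blocking alone scored 0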
Reading the numbers: two-siRNA summed score (-2 to +2): higher = both siRNAs protect from cisplatin killing; -2 means both sensitise; mean protection from cisplatin (shift in death): higher = protection from cisplatin killing
Hit rule: 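siRNAs harmful alone (LDH or WST-1) get 0; others get +1 for less and -1 for more cisplatin killing; genes are active when the two siRNAs give the same sign, summing to ±2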
Meaning of the calls: active = both siRNAs shift cisplatin killing the same way; inactive = no consistent shift, or siRNA harmful alone

What is on record for LOC441110 [SID131518746]?
two-siRNA summed score (-2 to +2): 0; mean protection from cisplatin (shift in death) (%): 25.8; activity call: inactive

What is on record for CRTC2 [SID131509068]?
two-siRNA summed score (-2 to +2): 0; mean protection from cisplatin (shift in death) (%): 1.8; activity call: inactive

With WDR53 [SID131505900], what was measured?
two-siRNA summed score (-2 to +2): 0; mean protection from cisplatin (shift in death) (%): -2.4; activity call: inactive

What is on record for LOC220416 [SID131520274]?
two-siRNA summed score (-2 to +2): 1; mean protection from cisplatin (shift in death) (%): 9.3; activity call: inactive

For RTL8C [SID131510024], what does the deposit list?
two-siRNA summed score (-2 to +2): 0; mean protection from cisplatin (shift in death) (%): 2.8; activity call: inactive

What did the screen give for POLR2A [SID131503977]?
two-siRNA summed score (-2 to +2): 0; mean protection from cisplatin (shift in death) (%): -6.9; activity call: inactive

With LOC442166 [SID131504518], how do the results read?
two-siRNA summed score (-2 to +2): 0; mean protection from cisplatin (shift in death) (%): -5.2; activity call: inactive

How did the screen score LOC441197 [SID131516480]?
two-siRNA summed score (-2 to +2): 0; mean protection from cisplatin (shift in death) (%): 10.9; activity call: inactive

How did the screen score HSD3B1 [SID131510958]?
two-siRNA summed score (-2 to +2): 0; mean protection from cisplatin (shift in death) (%): 3.8; activity call: inactive

How did the screen score CELF4 [SID131506200]?
two-siRNA summed score (-2 to +2): 0; mean protection from cisplatin (shift in death) (%): -1.9; activity call: inactive

Reformatted: results already given.
CRTC2 [SID131509068]
- two-siRNA summed score (-2 to +2): 0
- mean protection from cisplatin (shift in death) (%): 1.8
- activity call: inactive

WDR53 [SID131505900]
- two-siRNA summed score (-2 to +2): 0
- mean protection from cisplatin (shift in death) (%): -2.4
- activity call: inactive

LOC220416 [SID131520274]
- two-siRNA summed score (-2 to +2): 1
- mean protection from cisplatin (shift in death) (%): 9.3
- activity call: inactive

The results go on:
With SLC9B1 [SID131518966], what was measured?
two-siRNA summed score (-2 to +2): 1; mean protection from cisplatin (shift in death) (%): -0.7; activity call: inactive

For FKBP1B [SID131511010], what was measured?
two-siRNA summed score (-2 to +2): 0; mean protection from cisplatin (shift in death) (%): 3.9; activity call: inactive

What is on record for PSMD12 [SID131522406]?
two-siRNA summed score (-2 to +2): 1; mean protection from cisplatin (shift in death) (%): 18.3; activity call: inactive

What is on record for LOC440522 [SID131515209]?
two-siRNA summed score (-2 to +2): 0; mean protection from cisplatin (shift in death) (%): 8.8; activity call: inactive

Which result is listed for ABHD2 [SID131512748]?
two-siRNA summed score (-2 to +2): 0; mean protection from cisplatin (shift in death) (%): 5.8; activity call: inactive

For SRP68 [SID131508285], what does the deposit list?
two-siRNA summed score (-2 to +2): 0; mean protection from cisplatin (shift in death) (%): 0.9; activity call: inactive

What did the screen give for KCTD10 [SID131514247]?
two-siRNA summed score (-2 to +2): 0; mean protection from cisplatin (shift in death) (%): 7.6; activity call: inactive

With OR2AG1 [SID131510421], what does the deposit list?
two-siRNA summed score (-2 to +2): 0; mean protection from cisplatin (shift in death) (%): 3.2; activity call: inactive

With RERE [SID131520180], what was measured?
two-siRNA summed score (-2 to +2): 1; mean protection from cisplatin (shift in death) (%): 9; activity call: inactive

With TSFM [SID131513405], what was measured?
two-siRNA summed score (-2 to +2): 0; mean protection from cisplatin (shift in death) (%): 6.6; activity call: inactive

What is on record for EIF5B [SID131506457]?
two-siRNA summed score (-2 to +2): 0; mean protection from cisplatin (shift in death) (%): -1.5; activity call: inactive

For LOC441392 [SID131519848], how do the results read?
two-siRNA summed score (-2 to +2): 1; mean protection from cisplatin (shift in death) (%): 7.7; activity call: inactive

Which result is listed for SLC17A9 [SID131503419]?
two-siRNA summed score (-2 to +2): 0; mean protection from cisplatin (shift in death) (%): -10.2; activity call: inactive

For LOC440231 [SID131510389], what does the deposit list?
two-siRNA summed score (-2 to +2): 0; mean protection from cisplatin (shift in death) (%): 3.2; activity call: inactive

How did the screen score ACTL8 [SID131516799]?
two-siRNA summed score (-2 to +2): 0; mean protection from cisplatin (shift in death) (%): 11.7; activity call: inactive

Which result is listed for JAG1 [SID131503752]?
two-siRNA summed score (-2 to +2): 0; mean protection from cisplatin (shift in death) (%): -8; activity call: inactive

Which result is listed for LOC389533 [SID131502376]?
two-siRNA summed score (-2 to +2): -1; mean protection from cisplatin (shift in death) (%): -2.9; activity call: inactive

With SMAD2 [SID131512113], what does the deposit list?
two-siRNA summed score (-2 to +2): 0; mean protection from cisplatin (shift in death) (%): 5.1; activity call: inactive

Which result is listed for SBF2 [SID131507732]?
two-siRNA summed score (-2 to +2): 0; mean protection from cisplatin (shift in death) (%): 0.2; activity call: inactive

How did the screen score MAB21L3 [SID131519171]?
two-siRNA summed score (-2 to +2): 1; mean protection from cisplatin (shift in death) (%): 3.3; activity call: inactive

For MUSTN1 [SID131520542], what was measured?
two-siRNA summed score (-2 to +2): 1; mean protection from cisplatin (shift in death) (%): 10.2; activity call: inactive
